Screening data, single-dose tests

Protein sequences, listed by entry. Tags and fused reporters are not part of them. Residues count along the entry.
UniProt Q8IDJ8, 1-583: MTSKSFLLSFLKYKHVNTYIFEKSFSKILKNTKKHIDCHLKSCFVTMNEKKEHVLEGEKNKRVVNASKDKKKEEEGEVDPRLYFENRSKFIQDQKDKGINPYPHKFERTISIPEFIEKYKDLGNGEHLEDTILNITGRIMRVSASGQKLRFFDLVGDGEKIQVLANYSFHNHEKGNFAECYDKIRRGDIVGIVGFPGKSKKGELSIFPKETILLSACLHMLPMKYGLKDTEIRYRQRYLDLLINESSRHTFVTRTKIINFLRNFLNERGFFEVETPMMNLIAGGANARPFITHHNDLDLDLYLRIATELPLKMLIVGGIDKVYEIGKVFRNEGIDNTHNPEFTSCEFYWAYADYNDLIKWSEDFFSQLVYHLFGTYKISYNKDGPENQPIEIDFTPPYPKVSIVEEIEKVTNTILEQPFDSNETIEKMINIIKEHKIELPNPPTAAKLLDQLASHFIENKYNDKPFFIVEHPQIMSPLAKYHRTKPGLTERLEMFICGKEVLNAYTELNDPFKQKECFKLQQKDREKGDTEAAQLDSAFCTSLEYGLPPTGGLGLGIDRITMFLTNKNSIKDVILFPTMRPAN
UniProt I6X8D2, whole entry: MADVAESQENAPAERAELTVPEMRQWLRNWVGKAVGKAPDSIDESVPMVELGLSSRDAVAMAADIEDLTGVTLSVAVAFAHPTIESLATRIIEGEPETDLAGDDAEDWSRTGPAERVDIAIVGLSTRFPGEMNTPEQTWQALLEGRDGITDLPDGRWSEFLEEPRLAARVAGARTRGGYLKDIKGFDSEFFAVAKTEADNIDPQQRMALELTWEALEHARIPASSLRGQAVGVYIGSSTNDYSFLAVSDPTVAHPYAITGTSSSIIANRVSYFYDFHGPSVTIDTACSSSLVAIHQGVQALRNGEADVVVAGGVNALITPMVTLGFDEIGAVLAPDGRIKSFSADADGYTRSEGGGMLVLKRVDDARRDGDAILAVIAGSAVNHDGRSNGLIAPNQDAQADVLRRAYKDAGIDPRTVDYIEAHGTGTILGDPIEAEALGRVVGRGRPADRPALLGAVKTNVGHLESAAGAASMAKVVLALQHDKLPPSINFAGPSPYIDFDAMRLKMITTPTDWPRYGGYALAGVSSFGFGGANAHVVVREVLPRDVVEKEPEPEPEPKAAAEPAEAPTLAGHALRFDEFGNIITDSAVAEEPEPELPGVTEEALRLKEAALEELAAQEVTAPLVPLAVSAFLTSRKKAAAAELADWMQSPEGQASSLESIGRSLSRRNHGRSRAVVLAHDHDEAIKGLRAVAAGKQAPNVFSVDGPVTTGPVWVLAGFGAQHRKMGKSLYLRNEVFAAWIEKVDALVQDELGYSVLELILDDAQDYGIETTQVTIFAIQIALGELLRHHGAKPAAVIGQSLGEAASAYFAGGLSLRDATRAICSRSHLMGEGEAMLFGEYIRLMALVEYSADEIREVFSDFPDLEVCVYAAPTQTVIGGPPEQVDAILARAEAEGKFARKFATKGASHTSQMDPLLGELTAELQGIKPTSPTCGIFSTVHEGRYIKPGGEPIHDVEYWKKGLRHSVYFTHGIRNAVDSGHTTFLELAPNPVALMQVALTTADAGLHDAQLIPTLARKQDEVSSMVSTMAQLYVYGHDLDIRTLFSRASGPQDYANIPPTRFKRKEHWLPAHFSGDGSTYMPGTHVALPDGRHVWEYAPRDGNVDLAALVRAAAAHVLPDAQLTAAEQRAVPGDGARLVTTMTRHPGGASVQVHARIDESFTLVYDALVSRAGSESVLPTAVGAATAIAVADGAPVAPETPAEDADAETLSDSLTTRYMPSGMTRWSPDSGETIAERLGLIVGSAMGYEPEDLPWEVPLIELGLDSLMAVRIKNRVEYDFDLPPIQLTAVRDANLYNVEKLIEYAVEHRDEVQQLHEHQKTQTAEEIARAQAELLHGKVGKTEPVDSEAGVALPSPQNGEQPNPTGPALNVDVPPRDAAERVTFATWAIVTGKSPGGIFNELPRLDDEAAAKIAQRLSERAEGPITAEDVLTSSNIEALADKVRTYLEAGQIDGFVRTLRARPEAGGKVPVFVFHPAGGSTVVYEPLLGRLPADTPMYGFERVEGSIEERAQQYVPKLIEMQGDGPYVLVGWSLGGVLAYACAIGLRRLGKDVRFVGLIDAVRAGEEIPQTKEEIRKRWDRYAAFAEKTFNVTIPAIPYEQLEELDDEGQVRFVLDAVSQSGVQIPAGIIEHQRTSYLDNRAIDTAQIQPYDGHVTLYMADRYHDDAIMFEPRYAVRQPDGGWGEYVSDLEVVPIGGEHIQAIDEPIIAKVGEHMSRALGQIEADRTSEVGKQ
UniProt P9WFT3, whole entry: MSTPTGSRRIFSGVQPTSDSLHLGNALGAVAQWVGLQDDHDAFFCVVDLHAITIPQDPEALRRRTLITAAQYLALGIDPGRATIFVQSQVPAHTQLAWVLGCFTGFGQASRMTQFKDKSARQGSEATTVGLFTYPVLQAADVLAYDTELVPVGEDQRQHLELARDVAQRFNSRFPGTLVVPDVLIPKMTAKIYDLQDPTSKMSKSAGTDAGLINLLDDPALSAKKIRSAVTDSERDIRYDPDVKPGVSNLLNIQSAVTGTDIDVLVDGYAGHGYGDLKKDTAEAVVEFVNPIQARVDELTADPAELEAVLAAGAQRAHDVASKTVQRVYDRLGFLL
UniProt Q4DA54, 1-478: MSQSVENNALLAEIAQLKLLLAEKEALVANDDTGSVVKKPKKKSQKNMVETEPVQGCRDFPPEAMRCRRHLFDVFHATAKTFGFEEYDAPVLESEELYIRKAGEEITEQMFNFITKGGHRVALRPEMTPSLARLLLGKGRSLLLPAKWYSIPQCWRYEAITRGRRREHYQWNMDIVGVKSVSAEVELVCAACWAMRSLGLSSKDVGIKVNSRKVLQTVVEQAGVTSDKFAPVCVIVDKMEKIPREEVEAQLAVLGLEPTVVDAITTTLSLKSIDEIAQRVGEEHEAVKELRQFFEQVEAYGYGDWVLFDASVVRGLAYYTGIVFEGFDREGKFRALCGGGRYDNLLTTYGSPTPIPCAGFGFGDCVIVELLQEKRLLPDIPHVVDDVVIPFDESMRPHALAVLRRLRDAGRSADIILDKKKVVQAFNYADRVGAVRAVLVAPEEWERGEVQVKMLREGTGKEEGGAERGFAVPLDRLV

PfKRS1: 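Lysine-tRNA ligase, Plasmodium falciparum 3D7 (UniProt Q8IDJ8). Enzyme assay of the cytosolic lysyl-tRNA synthetase in 384-well plates, read by luminescence. Tested at 30 µM. Higher reads as stronger inhibition, judged from the few compounds that gave an IC50. About 69,000 compounds were tested under these conditions; 0.071% (about 49) showed 50% or more at least once.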
Pks13 thioesterase: 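Polyketide synthase Pks13, Mycobacterium tuberculosis (UniProt I6X8D2). Enzyme assay of the thioesterase domain of polyketide synthase 13; the read-out is not stated. Tested at 30 µM. The record gives no direction; the compounds picked for IC50 retests had high values, so higher reads as stronger inhibition. About 67,000 compounds were tested under these conditions; 0.46% (about 300) showed 50% or more at least once.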
MtTrpRS: 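Enzyme assay of tryptophanyl-tRNA synthetase; the read-out is not stated. Target: Tryptophan-tRNA ligase, Mycobacterium tuberculosis (UniProt P9WFT3). Tested at 10 µM. Higher most likely means stronger inhibition; the record gives no direction and few retests gave an IC50. Of about 65,000 compounds tested this way, about 64 (0.098%) reached 50% or more in at least one test.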
TcHisRS: 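Enzyme assay of histidyl-tRNA synthetase; the read-out is not stated. Target: Histidine-tRNA ligase, Trypanosoma cruzi CL Brener (UniProt Q4DA54). Compounds at 30 µM. Direction is inferred from retests: higher values go with stronger inhibition. About 69,000 compounds were tested under these conditions; 0.045% (about 31) showed 50% or more at least once.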

Results are given as percent effect.
The controls that fix the scale are not given in the record; negative values are as filed.
Compounds were drawn at random from those tested, without regard to their results.
A dash means the value is not listed here; it may have been measured.

| # | structure | PfKRS1 | Pks13 thioesterase | MtTrpRS | TcHisRS |
|---|---|---|---|---|---|
| 1 | `Cc1cccc2cc(CNCCCN3CCOCC3)c(=O)[nH]c12` | 5.374 | -21.51 | 4.933 | -2.703 |
| 2 | `CCN1CC2(CCN(CC3COCCO3)CC2)OC1=O` (configuration not stated) | 4.111 | -8.901 | -3.701 | 9.877 |
| 3 | `Cc1cc2cccc(C(=O)N3CCOC(CCN(C)C)C3)c2o1` (configuration not stated) | -0.7937 | -21.39 | 1.646 | 4.103 |
| 4 | `Cc1cc(-c2cnc(N3CCNC(=O)C3)nc2-c2ccc(C)o2)on1` | -1.132 | -9.095 | 1.233 | 2.732 |
| 5 | `O=C(NCCc1nnc2n1CCC2)N(Cc1ccco1)C1CCCC1` | 4.95 | -30.65 | -1.146 | 2.956 |
| 6 | `CN(C)CCN(Cc1ccc(Cl)cc1)C(=O)c1cc[nH]n1` | 7.094 | -10.88 | -1.137 | 0 |
| 7 | `COc1ccc(Cl)cc1C(C(=O)O)N(C)Cc1ccon1` (configuration not stated) | 1.203 | -1.031 | 9.372 | 4.255 |
| 8 | `Cc1cccnc1NCCNC(=O)C1CCN(C(=O)N(C)C)CC1` | -3.781 | 11.53 | 6.256 | 2.174 |
| 9 | `CCOC(=O)CNc1nc(C(C)(C)C)nc2c1cnn2C` | 4.114 | -15.07 | -0.000006 | -1.235 |
| 10 | `CCc1n[nH]c(C2CN(C(=O)COCC(F)(F)F)CCO2)n1` (configuration not stated) | -4.366 | 6.701 | -0.1555 | 0.9901 |
| 11 | `O=C(Cc1ccsc1)N1CCCC(c2cc(C(F)F)n3ncnc3n2)C1` (configuration not stated) | -2.451 | -31.45 | - | -3.191 |
| 12 | `CNCc1cn(C2CCN(C(=O)NCc3ccco3)CC2)nn1` | 1.338 | -13.95 | -0.08211 | 11.9 |
| 13 | `CC(=O)N1CCC2(CCCN(C(=O)CCN3CCCCC3)C2)C1` (configuration not stated) | 0.7571 | -26.35 | -3.476 | 4.854 |
| 14 | `O=C(COc1ccccc1NCc1ccoc1)N1CCOCC1` | -2.494 | 32.79 | -0.5939 | 8.173 |
| 15 | `O=C(Cn1cccn1)N(CCO)CCSc1ccc(Cl)cc1` | 6.368 | -30.44 | 0.2472 | 0 |
| 16 | `COc1ccccc1CN1C[C@@H]2COC[C@]2(COCc2ccncc2)C1` | -1.7 | -15.74 | 0.5348 | 10.92 |
| 17 | `Cc1cccc2[nH]c(C3CCN(C(=O)c4cnc[nH]c4=O)CC3)nc12` | 0.8702 | -25.67 | 2.246 | -0.5025 |
| 18 | `Cc1n[nH]c(C)c1CCC(=O)NCC1CCOc2ccccc2C1` (configuration not stated) | 1.696 | -3.621 | 7.417 | 4.217 |
| 19 | `O=C(N1CCCC1)N1CCC[C@]2(C[C@@H](OCc3ccncc3)CO2)C1` | -1.253 | -19.22 | -1.58 | 2.488 |
| 20 | `COc1c(CNC2CCc3c(F)cccc32)c(C)nn1C` (configuration not stated) | 0.4422 | -6.461 | 0.2839 | 0.2849 |
| 21 | `CN(C)C(=O)COCc1ncn2c1CN(c1ncc(F)cn1)CCC2` | -0.3422 | 15.39 | 3.787 | 3.448 |
| 22 | `CC(NC(=O)NCc1ccccc1)(C(=O)O)c1ccco1` (configuration not stated) | 0.3175 | -4.702 | -5.598 | 5.78 |
| 23 | `CCc1ncc2c(n1)CN(c1nccc(C3CCCC3)n1)C2` | 6.356 | -20.55 | 0.8974 | 16.05 |
| 24 | `CC(C)CN1CCc2c(CN(C)Cc3ccco3)cncc2C1` | -0.4953 | -4.835 | -3.812 | 3.81 |
| 25 | `Cn1ccnc1SCCNC(=O)c1c[nH]nc1C1CCCCC1` | 2.702 | -32.92 | 2.207 | 1.299 |
| 26 | `Cc1cccc(Cn2c3c(ccc2=O)CCN(Cc2ccoc2)CC3)n1` | 2.733 | -18.17 | 5.016 | -1.653 |
| 27 | `CC(C)CNC(=O)CN(Cc1ccc(F)cc1)S(C)(=O)=O` | 0 | -2.497 | 2.304 | 8.911 |
| 28 | `CCn1c(NCC2CCCO2)nc2c(C)nn(C)c2c1=O` (configuration not stated) | 0.6402 | -10.06 | 1.387 | 9.278 |
| 29 | `C1CC(NCC2CC2)CN(Cc2noc(C3CC3)n2)C1` (configuration not stated) | 5.912 | -10.56 | -1.097 | 1.026 |
| 30 | `Cc1nc(CNC(=O)NC2CCN(c3cccc(Cl)c3)C2)no1` (configuration not stated) | 7.715 | -0.9744 | 2.821 | 4.938 |
| 31 | `O=C(c1csc(-c2nnc[nH]2)n1)N1CCCCC1Cn1cccn1` (configuration not stated) | -0.1283 | -45.37 | -2.715 | 4.624 |
| 32 | `CC(C)n1cc(CN2CCCN(C(=O)C(C)n3cncn3)CC2)cn1` (configuration not stated) | -0.3473 | -1.614 | 6.772 | 4.651 |
| 33 | `COCCN1CCC(Nc2ccc(C#N)cc2F)CC1` | 2.097 | -10.03 | 7.131 | 5.128 |
| 34 | `CCc1ncc2c(n1)CN(c1cc(NC3CC3)nc(N)n1)C2` | 5.562 | -9.748 | -0.8163 | 8.036 |
| 35 | `Clc1ccc(CN2CCCC(Cn3cncn3)C2)c2ncccc12` (configuration not stated) | -1.751 | -13.31 | 2.237 | 10.88 |
| 36 | `Cc1ccccc1C(NC(=O)CCCS(C)(=O)=O)C(C)(C)C` (configuration not stated) | -0.278 | 6.786 | -0.7988 | 10.3 |
| 37 | `Cc1nc2c(C)cccc2cc1C(=O)N1CCC2(CCCNC2)C1` (configuration not stated) | 3.048 | 1.236 | 0.136 | -4.878 |
| 38 | `NC(=O)C(Cc1ccccc1)NS(=O)(=O)Cc1ccccc1Cl` (configuration not stated) | -3.643 | - | -3.238 | 1.739 |
| 39 | `CC(C(=O)N(C)Cc1noc(C2CCC2)n1)N1CCc2ccccc2C1` (configuration not stated) | -0.7322 | 28.24 | 6.278 | 8.911 |
| 40 | `Cc1cc(S(=O)(=O)N2CC[C@@H](O)C2)c(Cl)cc1F` | -0.5997 | -12.14 | 1.321 | 7.692 |
| 41 | `CC(CCn1cccn1)N1CCC(n2cc(C(C)(C)N)nn2)CC1` (configuration not stated) | 1.551 | -14.23 | -1.729 | -1.205 |
| 42 | `O=C(NCc1ccc(-n2cncn2)nc1)c1cc[nH]n1` | -4.127 | -3.274 | 1.514 | 13.07 |
| 43 | `Cc1ccc(C(=O)N(C)Cc2csc(C)n2)c(=O)[nH]1` | 2.175 | 0.5477 | 1.761 | 5.528 |
| 44 | `CCOc1ccc(Cl)c(C(=O)N2CCN(C(=O)OC)CC2)n1` | 2.54 | -8.676 | -4.771 | 4.598 |
| 45 | `CSc1nsc(NC(=O)N2CCc3ccccc3C2)n1` | 4.384 | -3.261 | -2.788 | 6.533 |
| 46 | `COc1ccccc1Cc1cc(O)nc(NC(C)CN(C)C)n1` (configuration not stated) | 1.304 | -10.71 | -4.274 | 5.429 |
| 47 | `CNC(=O)C1Cc2ccccc2CN1CCc1cccs1` (configuration not stated) | 6.944 | -19.57 | -3.367 | 8.511 |
| 48 | `O=C(CC1CC1)N1CC[C@H]2OCC[C@@]2(COc2ncccc2F)C1` | 2.484 | -25.26 | -3.483 | 1.087 |

Some entries from above, unchanged:

- Cc1cccnc1NCCNC(=O)C1CCN(C(=O)N(C)C)CC1 : PfKRS1: -3.781%; Pks13 thioesterase: 11.53%; MtTrpRS: 6.256%; TcHisRS: 2.174%
- CNC(=O)C1Cc2ccccc2CN1CCc1cccs1 (configuration not stated) : PfKRS1: 6.944%; Pks13 thioesterase: -19.57%; MtTrpRS: -3.367%; TcHisRS: 8.511%
- Cn1ccnc1SCCNC(=O)c1c[nH]nc1C1CCCCC1 : PfKRS1: 2.702%; Pks13 thioesterase: -32.92%; MtTrpRS: 2.207%; TcHisRS: 1.299%

Measurements from “University of Dundee, Small-Polar-MMV Screening Library” (2021), ChEMBL document CHEMBL3988442.